The assay deals with Δ2PY-CFP (mouse) (UniProt Q61115). Kind of assay: FRET or BRET; CFP/YFP sensitized-emission FRET (N-FRET) by confocal microscopy in transfected MEFs; also with ShhN or control conditioned medium for 2 hr.

Amino acid sequences for entries named in this document (tags omitted). A change or cut given only in a name is not applied to a line headed by its entry.
UniProt Q61115: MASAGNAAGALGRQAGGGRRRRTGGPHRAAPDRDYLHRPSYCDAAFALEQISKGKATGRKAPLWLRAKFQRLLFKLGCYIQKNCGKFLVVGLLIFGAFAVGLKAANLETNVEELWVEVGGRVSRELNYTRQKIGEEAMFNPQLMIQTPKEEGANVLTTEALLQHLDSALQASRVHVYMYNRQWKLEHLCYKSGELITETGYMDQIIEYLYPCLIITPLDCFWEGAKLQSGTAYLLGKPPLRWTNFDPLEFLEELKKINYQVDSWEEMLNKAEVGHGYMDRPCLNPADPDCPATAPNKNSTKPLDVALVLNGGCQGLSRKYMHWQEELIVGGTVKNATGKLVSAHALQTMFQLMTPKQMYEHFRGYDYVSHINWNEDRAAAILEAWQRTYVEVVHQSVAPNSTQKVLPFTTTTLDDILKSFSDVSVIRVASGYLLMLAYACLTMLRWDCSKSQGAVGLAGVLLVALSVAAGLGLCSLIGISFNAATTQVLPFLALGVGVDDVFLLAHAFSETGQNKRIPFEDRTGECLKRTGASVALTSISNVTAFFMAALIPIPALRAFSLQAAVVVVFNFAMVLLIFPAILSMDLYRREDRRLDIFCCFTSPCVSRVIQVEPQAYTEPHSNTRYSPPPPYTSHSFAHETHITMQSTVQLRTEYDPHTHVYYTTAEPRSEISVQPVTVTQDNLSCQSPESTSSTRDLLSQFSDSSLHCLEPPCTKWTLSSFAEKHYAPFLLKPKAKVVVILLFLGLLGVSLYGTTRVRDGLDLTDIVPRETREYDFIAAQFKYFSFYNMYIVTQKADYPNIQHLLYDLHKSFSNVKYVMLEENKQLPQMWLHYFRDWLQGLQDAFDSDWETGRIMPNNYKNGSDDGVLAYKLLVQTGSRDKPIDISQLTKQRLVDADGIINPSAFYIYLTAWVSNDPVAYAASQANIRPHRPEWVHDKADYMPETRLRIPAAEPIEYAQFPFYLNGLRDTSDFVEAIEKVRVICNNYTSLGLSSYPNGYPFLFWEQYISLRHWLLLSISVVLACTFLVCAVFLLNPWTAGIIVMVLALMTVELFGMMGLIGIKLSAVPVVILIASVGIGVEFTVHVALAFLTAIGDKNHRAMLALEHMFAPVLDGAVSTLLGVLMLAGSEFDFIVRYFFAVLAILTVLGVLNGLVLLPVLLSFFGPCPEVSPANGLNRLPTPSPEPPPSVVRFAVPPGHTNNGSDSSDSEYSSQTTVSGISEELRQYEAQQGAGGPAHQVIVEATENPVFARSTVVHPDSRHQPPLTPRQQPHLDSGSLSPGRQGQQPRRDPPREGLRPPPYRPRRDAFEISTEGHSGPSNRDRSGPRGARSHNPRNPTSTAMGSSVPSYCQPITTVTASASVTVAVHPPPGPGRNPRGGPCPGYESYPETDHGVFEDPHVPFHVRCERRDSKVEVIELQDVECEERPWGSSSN
UniProt Q9HAU4: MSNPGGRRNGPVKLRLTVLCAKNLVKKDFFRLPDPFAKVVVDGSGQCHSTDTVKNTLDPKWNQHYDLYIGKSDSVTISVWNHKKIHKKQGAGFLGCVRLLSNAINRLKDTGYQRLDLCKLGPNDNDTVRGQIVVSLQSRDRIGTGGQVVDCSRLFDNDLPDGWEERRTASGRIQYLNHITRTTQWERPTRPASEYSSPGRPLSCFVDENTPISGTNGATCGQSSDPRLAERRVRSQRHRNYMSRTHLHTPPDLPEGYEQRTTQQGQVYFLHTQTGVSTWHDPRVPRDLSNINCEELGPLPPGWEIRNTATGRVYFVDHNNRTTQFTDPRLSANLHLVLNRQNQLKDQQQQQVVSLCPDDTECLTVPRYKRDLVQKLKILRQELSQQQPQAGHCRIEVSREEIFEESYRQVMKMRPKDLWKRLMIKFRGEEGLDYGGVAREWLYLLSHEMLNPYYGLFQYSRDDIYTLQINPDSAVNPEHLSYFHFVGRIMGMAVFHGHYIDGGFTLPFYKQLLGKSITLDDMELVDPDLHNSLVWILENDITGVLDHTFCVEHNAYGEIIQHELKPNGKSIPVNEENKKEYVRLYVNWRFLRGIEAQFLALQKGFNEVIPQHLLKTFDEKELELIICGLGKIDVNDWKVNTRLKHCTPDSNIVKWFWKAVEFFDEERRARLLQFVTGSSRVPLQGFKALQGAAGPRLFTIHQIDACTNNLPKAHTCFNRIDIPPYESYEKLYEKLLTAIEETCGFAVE

Results are given in words; binding and its absence hold for the method and conditions named. Binding seen in cells or lysates may run through a third protein.

This note sets out measurements from publication PMC4080449.

Turning to “Smurf2-YFP (from UniProt Q9HAU4 1-748) (enzyme)”, the binding result was “no binding”.
